Data published in publication PMC8173199.
No constants are given. Whether binding was seen depends on the method and setting. Some entries that bind do so weakly or less than the wild type. Where a sequence is shown, tags or fusion partners need not be part of it.

Target: T1, non-expressor of pathogenesis-related genes 1 (NPR1) fused to GFP (Arabidopsis thaliana), P93002
T1 chain: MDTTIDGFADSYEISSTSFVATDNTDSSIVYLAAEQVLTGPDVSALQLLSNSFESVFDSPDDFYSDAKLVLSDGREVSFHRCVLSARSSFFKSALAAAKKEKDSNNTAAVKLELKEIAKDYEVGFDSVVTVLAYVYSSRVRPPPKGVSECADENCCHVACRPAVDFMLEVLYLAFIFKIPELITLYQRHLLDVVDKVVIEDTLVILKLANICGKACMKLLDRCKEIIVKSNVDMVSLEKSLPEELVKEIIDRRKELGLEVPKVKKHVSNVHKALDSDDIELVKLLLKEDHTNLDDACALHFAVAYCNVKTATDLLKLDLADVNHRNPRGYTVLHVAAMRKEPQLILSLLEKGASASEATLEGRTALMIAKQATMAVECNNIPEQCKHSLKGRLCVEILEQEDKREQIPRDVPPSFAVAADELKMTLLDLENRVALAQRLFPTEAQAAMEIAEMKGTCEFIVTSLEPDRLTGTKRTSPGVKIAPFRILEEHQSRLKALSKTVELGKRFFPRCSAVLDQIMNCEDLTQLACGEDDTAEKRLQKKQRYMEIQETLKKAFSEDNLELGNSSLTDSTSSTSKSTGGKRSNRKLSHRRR
Assay: non-reducing SDS-PAGE with immunoblot; total protein (30 ug) of 35S::NPR1-GFP (npr1-2) plants treated with 100 uM naringenin (time course), 200 uM SA or 50 uM PD98059; SDS-PAGE with or without DTT in the sample buffer (62.5 mM Tris-HCl pH 6.8, 10% glycerol, 1% LDS); immunoblot with polyclonal anti-NPR1; oligomeric (O) and monomeric (M) forms
Settings: remark: other sources report otherwise

- binding: binds
B1: non-expressor of pathogenesis-related genes 1 (NPR1) fused to GFP, P93002 1-593 (protein)
chain: T1 chain
